Laboratory results: article PMC4007472
These are yes or no findings as the source states them, for the method shown. A result given as binding can be weak or reduced; the word gives no strength.

Biological target: T1, Intact FnBPA (with FnBRs 1–11), expressed on S. aureus (S. aureus) (UniProt P14738)
T1 sequence: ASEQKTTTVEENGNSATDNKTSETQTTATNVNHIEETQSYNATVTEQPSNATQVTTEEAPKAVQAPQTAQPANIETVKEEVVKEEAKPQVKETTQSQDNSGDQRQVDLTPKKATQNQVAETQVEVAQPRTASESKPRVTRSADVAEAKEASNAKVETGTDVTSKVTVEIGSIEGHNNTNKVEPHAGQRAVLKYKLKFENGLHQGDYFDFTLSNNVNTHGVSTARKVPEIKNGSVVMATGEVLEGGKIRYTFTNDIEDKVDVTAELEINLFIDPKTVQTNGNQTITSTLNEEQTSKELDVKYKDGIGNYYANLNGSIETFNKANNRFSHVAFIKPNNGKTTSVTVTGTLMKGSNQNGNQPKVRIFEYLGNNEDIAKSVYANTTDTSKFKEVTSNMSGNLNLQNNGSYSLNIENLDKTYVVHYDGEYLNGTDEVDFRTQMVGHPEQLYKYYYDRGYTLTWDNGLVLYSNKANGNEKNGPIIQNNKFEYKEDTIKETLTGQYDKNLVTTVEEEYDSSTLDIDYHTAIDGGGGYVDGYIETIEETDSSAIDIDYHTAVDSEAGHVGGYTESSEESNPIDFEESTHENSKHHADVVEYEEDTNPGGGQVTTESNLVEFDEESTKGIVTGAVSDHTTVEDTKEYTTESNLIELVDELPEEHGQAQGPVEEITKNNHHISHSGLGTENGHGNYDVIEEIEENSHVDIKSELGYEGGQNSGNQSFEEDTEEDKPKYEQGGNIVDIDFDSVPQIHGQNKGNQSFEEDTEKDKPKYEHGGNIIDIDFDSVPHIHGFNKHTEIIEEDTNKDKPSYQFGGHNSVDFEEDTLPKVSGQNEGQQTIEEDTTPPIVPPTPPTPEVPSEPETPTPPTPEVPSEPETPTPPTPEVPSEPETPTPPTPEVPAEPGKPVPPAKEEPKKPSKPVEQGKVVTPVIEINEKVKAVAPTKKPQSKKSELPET
Assay: adherence of bacteria to coated wells (crystal violet); soluble human Fg added at a range of concentrations to S. aureus cells expressing FnBPA constructs on Fn-coated wells; inhibition of adherence; only the binder purified

## Intact human plasma fibrinogen (Fg) (complex)
  binding: binds
